Laboratory results: PubChem BioAssay AID1259308 (NCATS, 2017)

Aim: 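Knock-downs that increase output of a recombinant reporter protein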 (primary screen)
System: human HEK293 embryonic kidney cells stably expressing firefly luciferase (HEK-CMV-Luc2-Hygro)
Reagent: single siRNA against human genes, 0.8 pmol siRNA per well
Duration: 72 h
Measured: 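Luciferase light (ONE-Glo) measured on one replicate plate set and viability (CellTiter-Glo) on the other, scaled to a negative control siRNA, with robust z-scores and luciferase per cell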
Scale: total luciferase, z-score: higher = more reporter protein produced
Hit rule: 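An siRNA counts as active if its total luciferase robust z-score exceeds 3; genes with two or more such siRNAs out of three were retested with fresh siRNAs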
Calls: active = raised luciferase; inactive = no rise
Here is a random part of about 59,000 reagents. About 1,510 of all reagents (2.6%) were called active. 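Calls use total luciferase alone and ignore viability, so some active siRNAs may act by altering cell number.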 Not all columns of the deposit are shown.

target | PubChem SID | total luciferase, z-score | Outcome
COL7A1 (collagen type VII alpha 1 chain) | SID160746154 | 1.53 | inactive
COL7A1 (collagen type VII alpha 1 chain) | SID160746165 | -1.35 | inactive
COL7A1 (collagen type VII alpha 1 chain) | SID160746175 | 0.518 | inactive
OSBPL6 (oxysterol binding protein like 6) | SID160755066 | 0.54 | inactive
OSBPL6 (oxysterol binding protein like 6) | SID160755067 | 0.249 | inactive
OSBPL6 (oxysterol binding protein like 6) | SID160755068 | 0.331 | inactive
C1D (C1D nuclear receptor corepressor) | SID160728423 | -1.1 | inactive
C1D (C1D nuclear receptor corepressor) | SID160728424 | -1.04 | inactive
C1D (C1D nuclear receptor corepressor) | SID160728425 | 0.807 | inactive
UBE2T (ubiquitin conjugating enzyme E2 T) | SID160739037 | 0.233 | inactive
UBE2T (ubiquitin conjugating enzyme E2 T) | SID160739039 | -0.388 | inactive
UBE2T (ubiquitin conjugating enzyme E2 T) | SID160739040 | -0.448 | inactive
ATP10A (ATPase phospholipid transporting 10A (putative)) | SID160745806 | 1.61 | inactive
ATP10A (ATPase phospholipid transporting 10A (putative)) | SID160745807 | 0.0192 | inactive
ATP10A (ATPase phospholipid transporting 10A (putative)) | SID160745809 | -0.836 | inactive
PPM1E (protein phosphatase, Mg2+/Mn2+ dependent 1E) | SID160731879 | -1.15 | inactive
PPM1E (protein phosphatase, Mg2+/Mn2+ dependent 1E) | SID160731888 | 0.633 | inactive
PPM1E (protein phosphatase, Mg2+/Mn2+ dependent 1E) | SID160731898 | -1.47 | inactive
RASAL3 (RAS protein activator like 3) | SID160748140 | -2.11 | inactive
RASAL3 (RAS protein activator like 3) | SID160748141 | 0.789 | inactive
RASAL3 (RAS protein activator like 3) | SID160748142 | -0.0603 | inactive
TECPR2 (tectonin beta-propeller repeat containing 2) | SID160723365 | 0.666 | inactive
TECPR2 (tectonin beta-propeller repeat containing 2) | SID160723366 | -2.21 | inactive
TECPR2 (tectonin beta-propeller repeat containing 2) | SID160723367 | 0.14 | inactive
TMEM121 (transmembrane protein 121) | SID160724570 | -0.0255 | inactive
TMEM121 (transmembrane protein 121) | SID160724572 | -0.312 | inactive
TMEM121 (transmembrane protein 121) | SID160750525 | 1.34 | inactive
GOLGA6B (golgin A6 family member B) | SID160744584 | 0.61 | inactive
GOLGA6B (golgin A6 family member B) | SID160744585 | -0.15 | inactive
GOLGA6B (golgin A6 family member B) | SID160744586 | 0.349 | inactive

Not a retest: an excerpt of the list.
target | PubChem SID | total luciferase, z-score | Outcome
COL7A1 (collagen type VII alpha 1 chain) | SID160746175 | 0.518 | inactive
OSBPL6 (oxysterol binding protein like 6) | SID160755066 | 0.54 | inactive
OSBPL6 (oxysterol binding protein like 6) | SID160755067 | 0.249 | inactive
OSBPL6 (oxysterol binding protein like 6) | SID160755068 | 0.331 | inactive
C1D (C1D nuclear receptor corepressor) | SID160728423 | -1.1 | inactive
C1D (C1D nuclear receptor corepressor) | SID160728424 | -1.04 | inactive
C1D (C1D nuclear receptor corepressor) | SID160728425 | 0.807 | inactive
UBE2T (ubiquitin conjugating enzyme E2 T) | SID160739037 | 0.233 | inactive
UBE2T (ubiquitin conjugating enzyme E2 T) | SID160739039 | -0.388 | inactive

Continued:
target | PubChem SID | total luciferase, z-score | Outcome
PDE6A (phosphodiesterase 6A) | SID160713999 | 2.06 | inactive
PDE6A (phosphodiesterase 6A) | SID160714000 | -0.15 | inactive
PDE6A (phosphodiesterase 6A) | SID160714001 | 1.17 | inactive
LILRB1 (leukocyte immunoglobulin like receptor B1) | SID160729358 | -1.26 | inactive
LILRB1 (leukocyte immunoglobulin like receptor B1) | SID160729359 | -0.771 | inactive
LILRB1 (leukocyte immunoglobulin like receptor B1) | SID160729360 | 3.41 | active
FBRS (fibrosin) | SID160747646 | 4.44 | active
FBRS (fibrosin) | SID160747647 | 0.893 | inactive
FBRS (fibrosin) | SID160747648 | 0.695 | inactive
COL13A1 (collagen type XIII alpha 1 chain) | SID160746475 | 0.299 | inactive
COL13A1 (collagen type XIII alpha 1 chain) | SID160746485 | -1.19 | inactive
COL13A1 (collagen type XIII alpha 1 chain) | SID160746496 | -1.8 | inactive
GRID1 (glutamate ionotropic receptor delta type subunit 1) | SID160774255 | 0.0425 | inactive
GRID1 (glutamate ionotropic receptor delta type subunit 1) | SID160774265 | 0.859 | inactive
GRID1 (glutamate ionotropic receptor delta type subunit 1) | SID160774273 | -0.334 | inactive
PXYLP1 (2-phosphoxylose phosphatase 1) | SID160754280 | -0.35 | inactive
PXYLP1 (2-phosphoxylose phosphatase 1) | SID160754281 | -1.48 | inactive
PXYLP1 (2-phosphoxylose phosphatase 1) | SID160754282 | -1.83 | inactive
CCDC69 (coiled-coil domain containing 69) | SID160732855 | 2.25 | inactive
CCDC69 (coiled-coil domain containing 69) | SID160732856 | 0.44 | inactive
CCDC69 (coiled-coil domain containing 69) | SID160737643 | -1.02 | inactive
OR51B2 (olfactory receptor family 51 subfamily B member 2) | SID160748823 | -0.576 | inactive
OR51B2 (olfactory receptor family 51 subfamily B member 2) | SID160748824 | -1.21 | inactive
OR51B2 (olfactory receptor family 51 subfamily B member 2) | SID160748825 | 0.206 | inactive
IL12RB2 (interleukin 12 receptor subunit beta 2) | SID160775775 | -0.424 | inactive
IL12RB2 (interleukin 12 receptor subunit beta 2) | SID160775776 | 0.0675 | inactive
IL12RB2 (interleukin 12 receptor subunit beta 2) | SID160775777 | -0.963 | inactive
